Reference: article PMC7156385, “Proper chromosome alignment depends on BRCA2 phosphorylation by PLK1” (Nature Communications, 2020)
These are yes or no findings as the source states them, for the method shown. In cells and extracts the contact can be indirect. Some entries that bind do so weakly or less than the wild type.

Amino acid sequences for entries named in this document (tags omitted).
UniProt P51587: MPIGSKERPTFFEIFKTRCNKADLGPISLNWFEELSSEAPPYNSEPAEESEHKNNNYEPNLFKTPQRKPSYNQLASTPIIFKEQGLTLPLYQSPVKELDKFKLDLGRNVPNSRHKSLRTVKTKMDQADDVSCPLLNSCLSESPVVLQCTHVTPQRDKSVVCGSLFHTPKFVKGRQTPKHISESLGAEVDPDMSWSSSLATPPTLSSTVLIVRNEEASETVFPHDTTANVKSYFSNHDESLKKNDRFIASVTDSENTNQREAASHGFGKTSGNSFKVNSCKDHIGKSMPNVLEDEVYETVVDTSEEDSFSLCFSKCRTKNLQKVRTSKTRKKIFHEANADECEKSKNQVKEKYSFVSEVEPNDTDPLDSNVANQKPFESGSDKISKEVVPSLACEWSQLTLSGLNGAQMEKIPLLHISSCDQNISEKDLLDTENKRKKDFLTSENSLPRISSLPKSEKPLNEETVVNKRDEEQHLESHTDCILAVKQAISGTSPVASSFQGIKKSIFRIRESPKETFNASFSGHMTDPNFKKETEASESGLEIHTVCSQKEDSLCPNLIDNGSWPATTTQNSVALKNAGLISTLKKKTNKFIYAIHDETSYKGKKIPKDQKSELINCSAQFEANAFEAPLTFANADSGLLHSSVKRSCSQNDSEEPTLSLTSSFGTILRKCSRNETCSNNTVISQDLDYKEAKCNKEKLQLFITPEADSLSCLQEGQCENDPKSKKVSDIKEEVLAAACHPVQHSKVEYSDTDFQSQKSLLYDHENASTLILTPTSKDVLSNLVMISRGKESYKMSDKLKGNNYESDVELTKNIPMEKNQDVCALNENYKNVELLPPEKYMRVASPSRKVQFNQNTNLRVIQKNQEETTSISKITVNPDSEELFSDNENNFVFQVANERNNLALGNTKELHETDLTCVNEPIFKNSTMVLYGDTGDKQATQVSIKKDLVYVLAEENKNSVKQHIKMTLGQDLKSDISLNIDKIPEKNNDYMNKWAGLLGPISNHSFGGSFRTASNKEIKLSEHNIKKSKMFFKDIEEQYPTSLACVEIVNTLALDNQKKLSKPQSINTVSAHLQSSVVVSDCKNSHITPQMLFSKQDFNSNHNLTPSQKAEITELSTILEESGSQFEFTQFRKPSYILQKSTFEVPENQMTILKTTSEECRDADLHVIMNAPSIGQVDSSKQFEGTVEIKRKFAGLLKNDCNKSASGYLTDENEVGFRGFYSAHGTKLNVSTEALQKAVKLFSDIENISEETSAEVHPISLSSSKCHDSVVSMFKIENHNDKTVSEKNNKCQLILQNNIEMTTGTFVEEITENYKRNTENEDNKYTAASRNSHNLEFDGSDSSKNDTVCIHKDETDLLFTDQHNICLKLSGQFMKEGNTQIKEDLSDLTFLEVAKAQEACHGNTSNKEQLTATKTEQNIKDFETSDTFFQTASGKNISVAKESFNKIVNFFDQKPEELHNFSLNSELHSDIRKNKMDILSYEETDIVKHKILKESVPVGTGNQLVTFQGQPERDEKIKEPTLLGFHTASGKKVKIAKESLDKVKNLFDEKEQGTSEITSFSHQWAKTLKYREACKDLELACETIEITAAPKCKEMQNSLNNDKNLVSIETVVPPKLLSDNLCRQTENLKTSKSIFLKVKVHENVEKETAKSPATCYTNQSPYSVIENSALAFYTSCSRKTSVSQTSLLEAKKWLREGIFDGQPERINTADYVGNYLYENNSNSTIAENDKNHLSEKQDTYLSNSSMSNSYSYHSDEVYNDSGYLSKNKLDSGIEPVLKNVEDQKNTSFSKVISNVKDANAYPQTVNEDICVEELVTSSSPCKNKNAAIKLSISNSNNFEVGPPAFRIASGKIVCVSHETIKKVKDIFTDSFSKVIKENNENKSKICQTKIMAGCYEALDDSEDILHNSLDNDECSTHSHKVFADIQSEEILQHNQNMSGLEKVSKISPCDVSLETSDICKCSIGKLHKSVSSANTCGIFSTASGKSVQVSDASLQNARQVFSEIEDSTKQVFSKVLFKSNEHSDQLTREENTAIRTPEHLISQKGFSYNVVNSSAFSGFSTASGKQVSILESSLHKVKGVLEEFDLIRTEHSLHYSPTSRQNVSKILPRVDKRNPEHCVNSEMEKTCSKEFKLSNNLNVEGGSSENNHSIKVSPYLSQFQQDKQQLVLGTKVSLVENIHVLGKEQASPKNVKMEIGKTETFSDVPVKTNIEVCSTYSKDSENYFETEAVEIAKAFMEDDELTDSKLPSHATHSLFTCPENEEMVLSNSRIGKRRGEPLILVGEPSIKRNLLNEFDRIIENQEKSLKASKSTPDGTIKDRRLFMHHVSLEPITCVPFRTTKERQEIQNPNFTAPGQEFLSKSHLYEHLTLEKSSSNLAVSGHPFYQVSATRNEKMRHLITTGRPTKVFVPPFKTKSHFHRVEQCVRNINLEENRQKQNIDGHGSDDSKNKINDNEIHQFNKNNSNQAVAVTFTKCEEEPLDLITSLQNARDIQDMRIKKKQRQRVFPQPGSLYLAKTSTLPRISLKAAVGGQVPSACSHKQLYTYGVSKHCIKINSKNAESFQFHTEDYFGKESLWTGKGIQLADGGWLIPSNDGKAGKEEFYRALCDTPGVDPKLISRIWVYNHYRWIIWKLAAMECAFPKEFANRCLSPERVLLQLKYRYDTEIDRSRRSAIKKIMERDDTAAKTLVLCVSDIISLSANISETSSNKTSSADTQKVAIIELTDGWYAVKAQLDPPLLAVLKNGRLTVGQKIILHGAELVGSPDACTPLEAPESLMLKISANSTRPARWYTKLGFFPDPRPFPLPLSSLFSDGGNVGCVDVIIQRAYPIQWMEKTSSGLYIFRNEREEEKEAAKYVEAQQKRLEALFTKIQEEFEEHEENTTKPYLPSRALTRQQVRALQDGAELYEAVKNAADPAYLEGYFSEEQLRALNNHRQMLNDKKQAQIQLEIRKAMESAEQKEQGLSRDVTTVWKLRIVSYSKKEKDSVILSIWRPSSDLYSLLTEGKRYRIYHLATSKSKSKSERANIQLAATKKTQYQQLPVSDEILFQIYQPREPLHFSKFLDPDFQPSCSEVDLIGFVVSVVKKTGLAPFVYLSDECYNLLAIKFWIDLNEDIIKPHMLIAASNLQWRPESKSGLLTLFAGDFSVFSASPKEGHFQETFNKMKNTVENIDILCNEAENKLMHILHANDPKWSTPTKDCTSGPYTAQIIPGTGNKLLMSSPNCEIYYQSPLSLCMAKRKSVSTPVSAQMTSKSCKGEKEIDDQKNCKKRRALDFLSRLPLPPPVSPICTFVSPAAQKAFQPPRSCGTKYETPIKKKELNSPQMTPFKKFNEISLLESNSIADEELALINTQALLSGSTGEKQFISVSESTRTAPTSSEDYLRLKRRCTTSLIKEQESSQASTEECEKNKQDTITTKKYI
UniProt O60566: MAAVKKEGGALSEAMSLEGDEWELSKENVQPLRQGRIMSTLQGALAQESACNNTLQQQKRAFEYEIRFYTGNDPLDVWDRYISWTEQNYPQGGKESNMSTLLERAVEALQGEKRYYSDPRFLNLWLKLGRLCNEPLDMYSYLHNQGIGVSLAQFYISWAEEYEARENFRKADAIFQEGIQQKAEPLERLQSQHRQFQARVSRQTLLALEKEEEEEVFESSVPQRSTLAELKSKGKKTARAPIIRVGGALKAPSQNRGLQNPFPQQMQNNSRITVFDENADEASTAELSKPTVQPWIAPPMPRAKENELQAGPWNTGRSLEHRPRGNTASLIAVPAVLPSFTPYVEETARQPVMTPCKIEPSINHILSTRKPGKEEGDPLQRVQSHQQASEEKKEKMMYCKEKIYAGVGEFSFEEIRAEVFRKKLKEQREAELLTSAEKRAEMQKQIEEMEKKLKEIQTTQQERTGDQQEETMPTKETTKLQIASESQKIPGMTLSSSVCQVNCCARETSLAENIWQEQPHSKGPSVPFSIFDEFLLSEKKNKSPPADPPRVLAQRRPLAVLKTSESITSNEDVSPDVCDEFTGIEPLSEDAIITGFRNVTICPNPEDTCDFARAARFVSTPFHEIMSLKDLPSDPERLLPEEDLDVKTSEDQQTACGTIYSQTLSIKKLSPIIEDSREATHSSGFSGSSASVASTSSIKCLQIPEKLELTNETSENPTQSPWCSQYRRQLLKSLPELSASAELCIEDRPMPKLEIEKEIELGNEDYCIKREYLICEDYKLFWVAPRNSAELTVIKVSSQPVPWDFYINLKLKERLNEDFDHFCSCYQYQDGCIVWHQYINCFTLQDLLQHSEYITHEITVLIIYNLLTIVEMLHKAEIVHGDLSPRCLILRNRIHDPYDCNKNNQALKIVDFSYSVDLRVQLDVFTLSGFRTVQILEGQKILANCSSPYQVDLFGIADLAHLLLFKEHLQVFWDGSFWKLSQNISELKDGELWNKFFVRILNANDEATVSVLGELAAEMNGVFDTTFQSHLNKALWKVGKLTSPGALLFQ

Columns and labels:
[1] = target: EGFP-MBP-BRCA2 WT (full-length) (human) (UniProt P51587); assay: pull-down; GFP-TRAP beads pull-down of EGFP-MBP-BRCA2 from lysates of nocodazole-arrested DLD1 BRCA2-/- stable clones (also after incubation of the cells with the PLK inhibitor BTO); extraction buffer A, 2 h at 4 °C, washes up to 500 mM NaCl; western blot
[2] = target: endogenous BUBR1 (human (endogenous in DLD1)) (UniProt O60566); assay: co-IP; immunoprecipitation of endogenous BUBR1 with mouse anti-BUBR1 antibody from nocodazole-treated DLD1 BRCA2-/- stable clones expressing BRCA2 WT or variants; extraction buffer A, washes up to 500 mM NaCl; western blot for PP2A-C and PLK1

Substance | binding [1] | binding [2]
endogenous BUBR1 (from UniProt O60566 1-1050) | binds | –
endogenous PLK1 (DLD1 cells) (from UniProt P53350 1-603) (enzyme) | – | binds
pT680-BUBR1 (from UniProt O60566 1-1050) | binds | –
